Assay results taken from paper PMC6368584.
Results are given in words; binding and its absence hold for the method and conditions named. Binding seen in cells or lysates may run through a third protein. Some binding calls cover weakened binding; strength is not graded here.

Protein sequences, listed by entry. Tags and fused reporters are not part of them.
UniProt Q92769: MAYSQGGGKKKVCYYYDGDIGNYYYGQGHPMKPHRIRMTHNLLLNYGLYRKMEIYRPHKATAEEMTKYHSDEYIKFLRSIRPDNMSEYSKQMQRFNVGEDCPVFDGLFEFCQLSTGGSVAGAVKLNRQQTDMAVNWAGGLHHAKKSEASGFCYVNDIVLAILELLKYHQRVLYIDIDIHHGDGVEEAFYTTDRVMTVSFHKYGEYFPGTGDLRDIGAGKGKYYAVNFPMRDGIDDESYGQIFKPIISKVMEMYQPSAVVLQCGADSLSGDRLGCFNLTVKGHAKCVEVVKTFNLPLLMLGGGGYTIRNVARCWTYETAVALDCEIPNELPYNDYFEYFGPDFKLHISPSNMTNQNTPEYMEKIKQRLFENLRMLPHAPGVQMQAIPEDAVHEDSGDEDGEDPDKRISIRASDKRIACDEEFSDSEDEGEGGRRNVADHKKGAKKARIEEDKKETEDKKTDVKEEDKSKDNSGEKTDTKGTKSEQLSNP
UniProt Q09472: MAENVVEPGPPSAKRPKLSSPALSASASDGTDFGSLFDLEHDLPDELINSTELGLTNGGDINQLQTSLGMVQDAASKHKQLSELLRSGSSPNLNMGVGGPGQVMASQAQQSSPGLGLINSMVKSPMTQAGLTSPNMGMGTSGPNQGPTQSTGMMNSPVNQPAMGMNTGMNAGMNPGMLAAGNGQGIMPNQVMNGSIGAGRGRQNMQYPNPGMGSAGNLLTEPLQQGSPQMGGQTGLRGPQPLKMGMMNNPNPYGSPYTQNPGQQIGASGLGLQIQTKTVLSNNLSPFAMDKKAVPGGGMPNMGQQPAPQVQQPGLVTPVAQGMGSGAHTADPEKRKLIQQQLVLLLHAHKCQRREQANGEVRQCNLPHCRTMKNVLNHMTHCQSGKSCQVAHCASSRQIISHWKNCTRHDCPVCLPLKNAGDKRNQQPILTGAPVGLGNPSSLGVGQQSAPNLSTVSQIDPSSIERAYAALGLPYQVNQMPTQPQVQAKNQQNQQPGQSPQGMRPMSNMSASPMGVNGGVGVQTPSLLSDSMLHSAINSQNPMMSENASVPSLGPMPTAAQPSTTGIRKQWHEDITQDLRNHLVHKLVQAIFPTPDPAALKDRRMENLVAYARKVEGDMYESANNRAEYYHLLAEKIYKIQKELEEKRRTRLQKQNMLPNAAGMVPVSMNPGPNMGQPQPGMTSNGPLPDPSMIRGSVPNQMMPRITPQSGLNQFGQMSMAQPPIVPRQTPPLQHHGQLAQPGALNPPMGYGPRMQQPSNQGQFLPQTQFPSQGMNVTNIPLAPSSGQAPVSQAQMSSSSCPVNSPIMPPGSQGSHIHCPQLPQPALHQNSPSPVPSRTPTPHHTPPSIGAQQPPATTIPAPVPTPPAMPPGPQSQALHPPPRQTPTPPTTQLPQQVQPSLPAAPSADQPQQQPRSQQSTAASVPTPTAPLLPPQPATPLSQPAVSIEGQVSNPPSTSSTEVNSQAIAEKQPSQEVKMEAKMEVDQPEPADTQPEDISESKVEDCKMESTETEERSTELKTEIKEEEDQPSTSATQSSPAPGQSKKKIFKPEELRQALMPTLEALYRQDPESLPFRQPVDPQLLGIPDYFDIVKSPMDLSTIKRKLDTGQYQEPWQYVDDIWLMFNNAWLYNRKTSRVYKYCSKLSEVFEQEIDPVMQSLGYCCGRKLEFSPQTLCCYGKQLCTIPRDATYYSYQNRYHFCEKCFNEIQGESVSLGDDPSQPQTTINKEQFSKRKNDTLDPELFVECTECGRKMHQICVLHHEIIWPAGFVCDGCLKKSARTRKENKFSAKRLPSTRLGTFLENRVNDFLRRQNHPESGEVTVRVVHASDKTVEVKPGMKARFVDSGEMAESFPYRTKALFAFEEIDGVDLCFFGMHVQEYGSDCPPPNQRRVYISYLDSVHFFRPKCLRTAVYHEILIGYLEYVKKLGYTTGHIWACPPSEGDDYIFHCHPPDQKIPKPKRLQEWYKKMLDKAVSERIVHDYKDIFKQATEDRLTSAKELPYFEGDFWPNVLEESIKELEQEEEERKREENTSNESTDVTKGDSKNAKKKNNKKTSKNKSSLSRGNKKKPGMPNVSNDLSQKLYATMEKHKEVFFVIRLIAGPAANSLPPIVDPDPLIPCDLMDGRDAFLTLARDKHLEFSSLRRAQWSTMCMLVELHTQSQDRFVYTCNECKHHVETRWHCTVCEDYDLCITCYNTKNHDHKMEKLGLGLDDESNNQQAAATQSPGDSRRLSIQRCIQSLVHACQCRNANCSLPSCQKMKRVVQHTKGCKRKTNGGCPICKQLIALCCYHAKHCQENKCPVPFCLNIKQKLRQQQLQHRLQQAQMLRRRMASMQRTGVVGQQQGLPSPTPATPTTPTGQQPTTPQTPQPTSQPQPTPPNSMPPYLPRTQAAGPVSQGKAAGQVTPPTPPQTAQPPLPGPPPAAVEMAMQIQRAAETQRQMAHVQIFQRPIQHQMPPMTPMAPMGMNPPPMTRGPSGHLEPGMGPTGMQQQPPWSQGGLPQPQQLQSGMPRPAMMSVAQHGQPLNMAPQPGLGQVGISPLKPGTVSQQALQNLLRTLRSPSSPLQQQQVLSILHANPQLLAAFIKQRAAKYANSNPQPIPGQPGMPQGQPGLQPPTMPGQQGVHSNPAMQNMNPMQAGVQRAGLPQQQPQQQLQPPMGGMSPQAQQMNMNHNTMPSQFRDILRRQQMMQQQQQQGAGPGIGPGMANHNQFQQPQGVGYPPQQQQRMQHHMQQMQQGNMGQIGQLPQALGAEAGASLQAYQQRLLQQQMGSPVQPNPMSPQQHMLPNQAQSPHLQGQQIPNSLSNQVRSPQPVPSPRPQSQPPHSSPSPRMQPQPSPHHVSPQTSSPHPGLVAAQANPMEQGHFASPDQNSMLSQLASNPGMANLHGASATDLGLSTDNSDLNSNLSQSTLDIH
UniProt P25490: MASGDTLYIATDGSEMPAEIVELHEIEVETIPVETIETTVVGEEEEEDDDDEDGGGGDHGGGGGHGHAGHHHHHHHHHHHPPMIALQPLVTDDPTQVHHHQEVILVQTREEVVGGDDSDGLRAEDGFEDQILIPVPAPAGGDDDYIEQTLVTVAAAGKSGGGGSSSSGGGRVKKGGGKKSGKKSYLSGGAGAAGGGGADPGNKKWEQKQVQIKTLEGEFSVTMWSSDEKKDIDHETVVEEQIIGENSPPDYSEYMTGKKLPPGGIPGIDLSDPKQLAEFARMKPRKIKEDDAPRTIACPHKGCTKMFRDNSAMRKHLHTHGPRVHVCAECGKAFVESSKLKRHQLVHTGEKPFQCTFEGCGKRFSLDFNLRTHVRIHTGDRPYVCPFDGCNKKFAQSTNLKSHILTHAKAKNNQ

Experiments:
[1] = target: HDAC2 (endogenous) (human (endogenous in CRC cell lines)) (UniProt Q92769); test: co-IP; endogenous proteins, whole lysates of untransfected CRC cells; 3 µg anti-p300 or anti-HDAC2 antibody 3 h at 4 °C, protein A/G-agarose beads; Western blot; normal mouse IgG as control
[2] = target: p300 (endogenous) (human (endogenous in CRC cell lines)) (UniProt Q09472); test: as above
[3] = target: HA-tagged p300 (UniProt Q09472); test: co-IP; lysates of CRC cells transfected with tagged constructs (HA-p300; HDAC2 plasmid); 3 µg antibody (anti-HA or anti-HDAC2) 3 h at 4 °C, protein A/G-agarose beads; Western blot; normal mouse IgG as control
[4] = target: HDAC2 (from transfected pENTER-HDAC2 plasmid) (UniProt Q92769); test: as above

binding [1]: binds
binding [2]: binds
binding [3]: binds
binding [4]: binds
Substance: YY1 (endogenous) (from UniProt P25490 1-414)
